Values from PubChem BioAssay AID504808 (Drosophila RNAi Screening Center, 2011).
The deposit covers about 21,000 reagents; below is an unselected part of those with a known target gene and a result. Of all reagents, 18 (0.084%) were called active. 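Raw counts without plate normalisation, one of two replicates; the ratio scores behind the calls were not deposited.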 A number with no mark means an inactive call. Names joined by + are all predicted targets of the reagent. The record does not give: the amount of reagent, the time to read-out.

Screen: 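Genes whose loss lifts activity of an E2F-responsive reporter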 (primary screen)
Cell system: Drosophila S2 cells
Knock-down reagent: long dsRNA against Drosophila genes
Measured: 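Firefly luciferase driven by E2F sites, normalised to Renilla luciferase on the same minimal promoter, measured by plate reader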
Direction: E2F firefly: higher = more E2F reporter activity; Renilla normaliser: higher = more normaliser reporter signal
Call rule: 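Called active if the normalised E2F reporter went up by over 50%; the cutoff is arbitrary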

The first 13 entries, ahead of the listing:
gene,dsRNA,"E2F firefly, rep 1","Renilla normaliser, rep 1"
CG2104,DRSC12304,1.32e5,6410
egg,DRSC04119,88418,3281
hwt,DRSC19386,44116,3480
Mkk4,DRSC16739,1.44e5,6956
CG17085 (retired record),DRSC02565,1.57e5,4689
CG17085 (retired record),DRSC02566,1.59e5,5233
CG11594,DRSC08207,77302,3943
CG33773,DRSC14032,85570,3005
Grip,DRSC17940,57602,4418
Grip,DRSC18395,97777,6245
CG16734,DRSC15143,1.28e5,5721
mRpL21,DRSC11100,1.32e5,7548
Vps15,DRSC16553,69974,3248

The list itself, from the start:
gene,dsRNA,"E2F firefly, rep 1","Renilla normaliser, rep 1"
CG2104,DRSC12304,1.32e5,6410
egg,DRSC04119,88418,3281
hwt,DRSC19386,44116,3480
Mkk4,DRSC16739,1.44e5,6956
CG17085 (retired record),DRSC02565,1.57e5,4689
CG17085 (retired record),DRSC02566,1.59e5,5233
CG11594,DRSC08207,77302,3943
CG33773,DRSC14032,85570,3005
Grip,DRSC17940,57602,4418
Grip,DRSC18395,97777,6245
CG16734,DRSC15143,1.28e5,5721
mRpL21,DRSC11100,1.32e5,7548
Vps15,DRSC16553,69974,3248
shps,DRSC14614,1.00e5,5597
Edg91,DRSC16657,88344,4935
CG14314,DRSC14793,1.35e5,6485
JMJD7,DRSC09703,51345,3263
Hen1,DRSC06139,187,46
Hen1,DRSC06140,87182,4375
Mur11Da,DRSC18960,89296,2208
CG2680,DRSC18466,1.21e5,5591
CG11710,DRSC20485,1.40e5,6050
Camta,DRSC06440,1.35e5,4474
Camta,DRSC06441,1.59e5,4922
Camta,DRSC07272,2756,217
lectin-37Da,DRSC03278,99208,4653
CG42449,DRSC18084,93255,6168
elg1,DRSC10229,69973,3623
CG33253,DRSC19547,1.53e5,6639
CG33253,DRSC20053,1.27e5,121
d-cup,DRSC14846,1.51e5,6614
CG34198,DRSC05803,1.74e5,6132
Fmr1,DRSC16674,1.55e5,6579
AstA-R2,DRSC14171,1.10e5,5994
CG12581,DRSC12206,75467,4124
CG12581,DRSC12207,1.39e5,6266
RpL11,DRSC07537,55081,3601
Mal-B1,DRSC02416,1.43e5,4815
LManIV,DRSC03222,1.52e5,4716
laf,DRSC12246,1.14e5,5366
Mvb12,DRSC20027,1.56e5,5826
Acadvl,DRSC07022,80820,3499
CG5618,DRSC11780,76747,3263
CG33722 + CG18749,DRSC12674,76600,3590
CG33722 + CG18749,DRSC15386,1.41e5,7665
ImpL1,DRSC11197,79823,3755
Sbp2,DRSC10766,79574,3106
CG30338,DRSC05166,1.38e5,5239
lncRNA:bxd,DRSC13176,86375,2576
CG3726,DRSC18320,61372,860
form3,DRSC10195,90440,3766
form3,DRSC10297,64475,3304
form3,DRSC11024,95285,4059
sage,DRSC14580,50677,2606
Pk34A,DRSC03398,92327,4019
DIP1,DRSC20818,1.30e5,6507
mwh,DRSC08382,90358,4084
CG10467,DRSC09728,97246,3606
Neb-cGP,DRSC17991,1.32e5,6108
Smg6,DRSC16029,69316,3912
Obp57c,DRSC06384,1.52e5,5347
tyn,DRSC20652,1.50e5,7843
CG6304,DRSC02948,84129,2974
mRpL14,DRSC18597,1.16e5,5793
CG17567 (retired record),DRSC02627,1.05e5,4259
CG13008,DRSC19527,2.55e5,7038
CG13008,DRSC19528,2.59e5,7535
TotF,DRSC02305,90292,3860
lva,DRSC18403,2031,1032
Srp19,DRSC11288,90879,3986
CG8501,DRSC07198,206,43
CG31441,DRSC15723,1.55e5,6375
CG8642,DRSC07228,1.35e5,4577
ACOX1,DRSC05941,71238,3857
Hsp68,DRSC16712,1.03e5,5515
trsn,DRSC06078,1.58e5,5993
Cyp4d2,DRSC18458,1787,884
l(1)sc,DRSC18789,42586,3964
CG11309,DRSC11650,84235,3284
Mzt1,DRSC07979,1.35e5,3979
peg,DRSC15216,1.51e5,7036
CG15728,DRSC19694,1.18e5,5326
CG12477,DRSC09886,1.67e5,8989
SmydA-2,DRSC10296,1.16e5,6213
Dscam2,DRSC08869,1.29e5,5441
Dscam2,DRSC10198,90425,3530
Dscam2,DRSC11018,95319,4009
Dscam2,DRSC11019,98386,3902
Patronin,DRSC06756,1.53e5,5175
Patronin,DRSC06757,1.46e5,5283
Patronin,DRSC06994,1.33e5,5042
Edg78E,DRSC11863,1.29e5,6611
Hsp83,DRSC08664,97087,4010
Top2,DRSC03459,1.28e5,4664
CG32772,DRSC18052,1.17e5,2372
CG32772,DRSC18406,7610,776
CG6052,DRSC10574,1.60e5,7155
CG13747,DRSC06418,1.43e5,4397
Apl,DRSC10350,1.66e5,8490
CAH1 + Adat1,DRSC02009,76861,3282
Obp83g,DRSC12269,1.18e5,6620
BubR1,DRSC04838,82021,4661
Apc2,DRSC14115,81617,5520
CG14857,DRSC14981,1.22e5,6832
Alp6,DRSC06710,3200,205
CG14073,DRSC10078,1.45e5,7044
CG31528,DRSC12003,92564,3982
